According to patent US20020042393A1, “Excipient” (priority 1998, published 2002):
Some results were stated once for a whole list of compounds, not compound by compound.

Assay: Tablet hardness (Schleuniger hardness meter)
Assay type: physicochemical
Settings: phenacetin granules compressed at 1,000 kg/cm^2; when the amount of the binder solution was controlled

Compound | Granule hardness
OC[C@H]1O[C@H](O[C@H]2O[C@H](CO)[C@@H](O)[C@H](O)[C@H]2O)[C@H](O)[C@@H](O)[C@@H]1O [Trehalose J, trehalose] | ≥ 4.5 kg
OC[C@H]1O[C@H](O[C@H]2O[C@H](CO)[C@@H](O)[C@H](O)[C@H]2O)[C@H](O)[C@@H](O)[C@@H]1O [Trehalose K, trehalose] | ≥ 4.5 kg
